What all share (details): yeast three-hybrid, YBZ-1, SC-Leu-His + 0.5 mM 3-AT, 4 days
Test [1] addresses T1, PUM1 PUF domain R3-GFP C935G + R936F + Q939P (UniProt Q14671).
T1 sequence: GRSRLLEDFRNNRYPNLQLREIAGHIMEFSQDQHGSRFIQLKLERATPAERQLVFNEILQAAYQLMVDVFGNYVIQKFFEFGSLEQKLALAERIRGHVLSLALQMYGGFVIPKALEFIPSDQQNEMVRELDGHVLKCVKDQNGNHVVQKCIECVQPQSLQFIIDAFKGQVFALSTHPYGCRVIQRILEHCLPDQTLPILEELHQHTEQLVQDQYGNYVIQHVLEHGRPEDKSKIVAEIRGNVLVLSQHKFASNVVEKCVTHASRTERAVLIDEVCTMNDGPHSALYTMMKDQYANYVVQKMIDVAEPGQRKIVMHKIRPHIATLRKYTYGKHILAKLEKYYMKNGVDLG

The target of test [2] is T2, PUM1 PUF domain R3-GHG C935G + R936H + Q939G (UniProt Q14671).
T2 sequence: T1 sequence with F109H, P112G

Test [3] has as its target T3, PUM1 PUF domain R3-GIR C935G + R936I + Q939R (Homo sapiens) (UniProt Q14671).
T3 sequence: T1 sequence with F109I, P112R

In test [4] the target is T4, PUM1 PUF domain R3-GPC C935G + R936P + Q939C (UniProt Q14671).
T4 sequence: T1 sequence with F109P, P112C

In test [5] the target is T5, PUM1 PUF domain R3-GPD C935G + R936P + Q939D (UniProt Q14671).
T5 sequence: T1 sequence with F109P, P112D

The target in test [6] is T6, PUM1 PUF domain R3-GPF C935G + R936P + Q939F (UniProt Q14671).
T6 sequence: T1 sequence with F109P, P112F

Test [7] addresses T7, PUM1 PUF domain R3-GPS C935G + R936P + Q939S (UniProt Q14671).
T7 sequence: T1 sequence with F109P, P112S

Test [8] addresses T8, PUM1 PUF domain R3-GPV C935G + R936P + Q939V (UniProt Q14671).
T8 sequence: T1 sequence with F109P, P112V

In test [9] the target is T9, PUM1 PUF domain R3-GPW C935G + R936P + Q939W (UniProt Q14671).
T9 sequence: T1 sequence with F109P, P112W

The target of test [10] is T10, PUM1 PUF domain R3-GRA C935G + Q939A (UniProt Q14671).
T10 sequence: T1 sequence with F109R, P112A

The target of test [11] is T11, PUM1 PUF domain R3-GRC C935G + Q939C (UniProt Q14671).
T11 sequence: T1 sequence with F109R, P112C

The target in test [12] is T12, PUM1 PUF domain R3-GRD C935G + Q939D (UniProt Q14671).
T12 sequence: T1 sequence with F109R, P112D

Test [13] deals with T13, PUM1 PUF domain R3-GRF C935G + Q939F (UniProt Q14671).
T13 sequence: T1 sequence with F109R, P112F

For test [14], the target named is T14, PUM1 PUF domain R3-GRG C935G + Q939G (UniProt Q14671).
T14 sequence: T1 sequence with F109R, P112G

Test [15] concerns the target T15, PUM1 PUF domain R3-GRH C935G + Q939H (UniProt Q14671).
T15 sequence: T1 sequence with F109R, P112H

Test [16] addresses T16, PUM1 PUF domain R3-GRL C935G + Q939L (UniProt Q14671).
T16 sequence: T1 sequence with F109R, P112L

In test [17] the target is T17, PUM1 PUF domain R3-GRP C935G + Q939P (UniProt Q14671).
T17 sequence: T1 sequence with F109R

The target in test [18] is T18, PUM1 PUF domain R3-GRR C935G + Q939R (Homo sapiens) (UniProt Q14671).
T18 sequence: T1 sequence with F109R, P112R

The target in test [19] is T19, PUM1 PUF domain R3-GRS C935G + Q939S (UniProt Q14671).
T19 sequence: T1 sequence with F109R, P112S

The target in test [20] is T20, PUM1 PUF domain R3-GRT C935G + Q939T (UniProt Q14671).
T20 sequence: T1 sequence with F109R, P112T

Test [21] has as its target T21, PUM1 PUF domain R3-GRV C935G + Q939V (UniProt Q14671).
T21 sequence: T1 sequence with F109R, P112V

Test [22] addresses T22, PUM1 PUF domain R3-GRW C935G + Q939W (UniProt Q14671).
T22 sequence: T1 sequence with F109R, P112W

The target in test [23] is T23, PUM1 PUF domain R3-GRY C935G + Q939Y (UniProt Q14671).
T23 sequence: T1 sequence with F109R, P112Y

Changes are numbered by the printed parent chain. The list shows a part of the results. For some assays here: At the low end of the ranking the order means little.

Regarding “GGCUAGAACUAGUGGAUCCCCCGGCGCCCGGCGGCUCGAGCCCGGGUAAGUGUAACUAGUCUGCAUGCCGCCGGGCGCCAUGCCUGCAGGUCGACUCUAGAAAACAUG”, the binding signal (log2 enrichment (interaction score)) in test [1] was under -9; in [2] it was under -7.85; in test [3] it was -3.06; in [4], under -7.73; in test [5], under -8.82; in test [6], under -8.42. Moreover, the binding signal (log2 enrichment (interaction score)) in test [7] is -5.42; in test [8], -2.41; in [9], under -8.74; in [10], under -10.7; in [11], under -9.99; in [12], under -9.06. Also, the binding signal (log2 enrichment (interaction score)) in [13] is under -9.89; in test [14] it was -3.16; in test [15], under -6.92; in test [16], -4.46; in test [17] it was -4.42; in test [18], -0.41. For the same sequence, the binding signal (log2 enrichment (interaction score)) in test [19] was -3.65; in test [20] it was -2.5; in [21], -3.88; in [22], -3.97; in [23], -3.31.

Values taken from PMC8384837.
